According to PubChem BioAssay AID1671190 (National Center for Advancing Translational Sciences (NCATS), 2021):
Hit rate of the full screen: of about 580,000 compounds, about 6,100 (1.1%) were called active. Calls come from the whole dose curve; as a rule, active = well fitted inhibition curve with a large enough effect; inconclusive = small, poorly fitted or top-dose-only effect, or another doubt; inactive = no such curve, though single readings can be large or run the other way. The inconclusive results got no clear call from the source. Where the call is inconclusive, the potency comes from a doubtful curve fit.

The chains behind the UniProt entries cited, without tags or fusion partners. Where a name states a change or a piece, a line headed by the entry shows the natural chain unless it says otherwise.
UniProt P18054: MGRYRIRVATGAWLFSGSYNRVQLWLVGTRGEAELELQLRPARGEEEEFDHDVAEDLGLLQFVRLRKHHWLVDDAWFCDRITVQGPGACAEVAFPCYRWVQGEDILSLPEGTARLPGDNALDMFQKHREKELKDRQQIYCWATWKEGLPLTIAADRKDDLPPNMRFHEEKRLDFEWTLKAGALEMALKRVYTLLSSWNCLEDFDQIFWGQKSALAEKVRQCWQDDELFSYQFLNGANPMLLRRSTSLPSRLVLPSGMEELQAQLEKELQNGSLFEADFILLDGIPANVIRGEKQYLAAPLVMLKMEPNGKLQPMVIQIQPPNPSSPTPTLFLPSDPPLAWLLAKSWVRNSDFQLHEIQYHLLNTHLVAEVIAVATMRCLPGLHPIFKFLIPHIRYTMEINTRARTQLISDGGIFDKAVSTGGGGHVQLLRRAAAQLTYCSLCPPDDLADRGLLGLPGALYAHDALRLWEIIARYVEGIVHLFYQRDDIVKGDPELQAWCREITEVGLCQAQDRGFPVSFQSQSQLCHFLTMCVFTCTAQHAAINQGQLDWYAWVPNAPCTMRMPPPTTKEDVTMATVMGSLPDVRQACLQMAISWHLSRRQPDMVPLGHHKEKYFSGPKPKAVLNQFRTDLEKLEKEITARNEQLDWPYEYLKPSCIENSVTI

Target: Polyunsaturated fatty acid lipoxygenase ALOX12 (Homo sapiens) (UniProt P18054)
Assay: Primary qHTS assay for inhibitors of human arachidonate 12S-lipoxygenase (ALOX12): Round 2
Conditions: purified 12hLO, xylenol orange hydroperoxide absorbance; series mostly up to 108 µM
Method in brief: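 Purified human 12hLO at 150 nM in 25 mM Hepes, 0.01% Triton X-100, pH 7.0, preincubated 15 min at room temperature with compound. Reaction started with 40 uM arachidonic acid, 30 min at room temperature. Hydroperoxide measured by Fe-xylenol orange, 573/405 nm absorbance ratio.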
Potency is the fitted concentration of half-maximal effect.

| SMILES | Potency |
| --- | --- |
| Cc1cc(C)cc(-n2cccc2/C=C2/C(=N)N3C(=NC2=O)SN=C3S(C)(=O)=O)c1 | inconclusive: 44.7 µM [inhibitor, partial curve, poor fit] |
